Experimental data published in doi:10.1101/2021.04.13.439655.
Results are given in words; binding and its absence hold for the method and conditions named.

Sequences of proteins named here, by UniProt entry; tags and fusion partners are left off. Residues count along the entry.
UniProt Q13485, residues 310-552: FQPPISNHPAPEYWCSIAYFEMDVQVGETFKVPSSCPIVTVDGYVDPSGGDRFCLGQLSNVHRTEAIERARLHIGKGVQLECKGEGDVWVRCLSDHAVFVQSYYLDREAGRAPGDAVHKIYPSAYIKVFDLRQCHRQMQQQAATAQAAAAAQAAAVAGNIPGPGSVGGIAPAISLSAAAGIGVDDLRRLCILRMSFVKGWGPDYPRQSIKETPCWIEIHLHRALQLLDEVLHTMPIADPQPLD

Molecular target: Smad4 core MH2 domain (S4MH2) (UniProt Q13485)
Test: SAXS with ensemble optimization method

binding: no binding (tested: 19-790 μM)
Substance: Smad4 core MH2 domain (S4MH2) (from UniProt Q13485 310-552) (domain or fragment)
